Some of these results come from one statement about several compounds together.
Tested on: MiaPaCa-2 cells
Test: OGF/gemcitabine treatment in athymic nude mouse model (Example 5)
Type: in vivo, athymic nude mice
Details: after tumor cell inoculation

Substance: [Met^5]-enkephalin [OGF]
- latency time for measurable (62.5 mm^3) tumors: ≤ 2 weeks
- latency to a visible tumor: ≤ 10 days

— patent publication US8003630B2, “Combinatorial therapies for the treatment of neoplasias using the opioid growth factor receptor” (The Penn State Research Foundation, priority 2004, dated 2011)
